Experimental data as given in patent publication US8748422B2, “Pharmaceutical compositions containing quinazoline derivatives for treating as serotonin receptor antagonist” (Korea Institute of Science and Technology, priority 2007, dated 2014).

Protein sequences, listed by entry. Tags and fused reporters are not part of them. Residues count along the entry.
UniProt P46098, 24-478 limits assumed: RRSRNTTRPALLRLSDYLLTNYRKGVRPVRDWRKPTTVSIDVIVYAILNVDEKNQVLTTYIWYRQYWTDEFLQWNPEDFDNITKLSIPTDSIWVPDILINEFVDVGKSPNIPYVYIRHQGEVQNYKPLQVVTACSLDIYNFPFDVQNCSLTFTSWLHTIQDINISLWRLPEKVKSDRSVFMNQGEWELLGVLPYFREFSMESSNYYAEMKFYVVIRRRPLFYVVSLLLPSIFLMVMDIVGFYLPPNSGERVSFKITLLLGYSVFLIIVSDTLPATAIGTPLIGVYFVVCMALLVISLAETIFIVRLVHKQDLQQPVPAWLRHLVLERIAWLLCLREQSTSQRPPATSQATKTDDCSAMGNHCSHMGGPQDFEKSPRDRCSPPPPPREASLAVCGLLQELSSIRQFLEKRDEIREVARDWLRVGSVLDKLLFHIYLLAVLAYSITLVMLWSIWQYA

Biological target: serotonin 5-HT3A receptor (Homo sapiens, UniProt P46098)
Assay: Assay for 5-HT3A receptor: two-electrode voltage clamp in Xenopus oocytes, inhibition of 5-HT-induced inward current
Assay type: cell-based
Settings: 5-HT3A receptor expressed in Xenopus laevis oocytes

CC1CCCCN1CCCNC(=O)c1ccc2c(=O)n(Cc3ccc(Cl)cc3)c(=O)[nH]c2c1 (stereo not drawn)
nH (Hill coefficient) (from concentration-response curves): 1.1 ± 0.4 | Vmax (maximum inhibition value) (inward current induced by 5-HT (1 μM), from concentration-response curves): 86.5% | IC50 (read-out: IC50 (50% inhibitory concentration), inward current induced by 5-HT (1 μM), test concentrations 0.003-100 μM): 5.9 µM

Structures were worked out from names or drawings and are uncertain.
